PubChem BioAssay AID1259277 – Sanger Institute – 2017
This is an unselected part of 160 deposited reagents. 48 of them (30%) were called active. 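Calls refer to individual siRNAs; confirming a gene required at least two siRNAs in multiple cell lines.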 Reagents against one gene are numbered here. Further read-outs or replicates are left out here. Not stated in the record: the amount of reagent, the time to read-out.

Purpose: 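Follow-up of kinome hits for drug and siRNA synthetic lethality in colorectal cancer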 (follow-up of hits)
Cells: LS123 human colorectal cancer cells
Knock-down reagent: single siRNA against human genes
Challenge: anchor drug BYL719 at 1 µM, cetuximab at 5 µg/ml or trametinib at 10 nM, or DMSO vehicle only, given one day after siRNA delivery
Measured: 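Replicate mean of viability versus control pool 2 (non-targeting), and a synergy score comparing joint viability with separate effects of anchor drug and siRNA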
Scale: synergy score with trametinib: higher = stronger synergistic killing with trametinib; synergy score with BYL719: higher = stronger synergistic killing with BYL719; synergy score with cetuximab: higher = stronger synergistic killing with cetuximab
Rule for the call: 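Active if synergy exceeds 0.10 for any of the three drug combinations, otherwise inactive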
Meaning of the calls: active = synergy with at least one anchor drug; inactive = no synergy with any anchor drug

Silencing of BRAF #1 gave: synergy score with trametinib 0.00494; synergy score with BYL719 = -0.166; synergy score with cetuximab -0.108; inactive.
BRAF #2 showed synergy score with trametinib 0.169; synergy score with BYL719 = -0.0336; synergy score with cetuximab 0.0425; active.
With knock-down of BRAF #3, the screen gave synergy score with trametinib 0.166; synergy score with BYL719 = -0.181; synergy score with cetuximab -0.0343; active.
Silencing of BRAF #4 came out at: synergy score with trametinib -0.094; synergy score with BYL719 = -0.151; synergy score with cetuximab -0.0585; inactive.
Against PIK3CA #1 the deposit lists synergy score with trametinib 0.121; synergy score with BYL719 = 0.00954; synergy score with cetuximab 0.00693; active.
PIK3CA #2 scored synergy score with trametinib -0.105; synergy score with BYL719 = -0.226; synergy score with cetuximab -0.0618; inactive.
With knock-down of PIK3CA #3 the results were synergy score with trametinib 0.106; synergy score with BYL719 = -0.149; synergy score with cetuximab -0.0976; active.
PIK3CA #4 showed synergy score with trametinib -0.0191; synergy score with BYL719 = -0.274; synergy score with cetuximab -0.316; inactive.
Knock-down of PLK1 #1 resulted in: synergy score with trametinib -0.00823; synergy score with BYL719 = -0.146; synergy score with cetuximab -0.0358; inactive.
With knock-down of PLK1 #2, the screen gave synergy score with trametinib 0.00483; synergy score with BYL719 = -0.0763; synergy score with cetuximab 0.0926; inactive.
PLK1 #3 showed synergy score with trametinib 0.0813; synergy score with BYL719 = -0.0706; synergy score with cetuximab 0.00994; inactive.
Against PLK1 #4, the entry reads synergy score with trametinib -0.0998; synergy score with BYL719 = -0.334; synergy score with cetuximab -0.0341; inactive.
After knock-down of HSPB8 #1 the results were synergy score with trametinib 0.21; synergy score with BYL719 = -0.0786; synergy score with cetuximab -0.125; active.
HSPB8 #2 scored synergy score with trametinib 0.106; synergy score with BYL719 = -0.166; synergy score with cetuximab -0.12; active.
After knock-down of HSPB8 #3, the screen gave synergy score with trametinib -0.0385; synergy score with BYL719 = 0.00396; synergy score with cetuximab 0.0189; inactive.
Silencing of HSPB8 #4 came out at: synergy score with trametinib 0.153; synergy score with BYL719 = -0.0914; synergy score with cetuximab -0.109; active.
For MPP3 #1, the values are synergy score with trametinib 0.079; synergy score with BYL719 = -0.165; synergy score with cetuximab -0.118; inactive.
MPP3 #2 scored synergy score with trametinib 0.0682; synergy score with BYL719 = -0.0406; synergy score with cetuximab -0.0736; inactive.
With knock-down of MPP3 #3, the record shows synergy score with trametinib 0.316; synergy score with BYL719 = 0.159; synergy score with cetuximab -0.0232; active.
MPP3 #4 scored synergy score with trametinib 0.202; synergy score with BYL719 = 0.0565; synergy score with cetuximab 0.136; active.

Ordered by “synergy score with BYL719” (ascending): 2 of the entries above.
MPP3 #2 | synergy score with trametinib = 0.0682; synergy score with BYL719 = -0.0406; synergy score with cetuximab = -0.0736; outcome = inactive
MPP3 #3 | synergy score with trametinib = 0.316; synergy score with BYL719 = 0.159; synergy score with cetuximab = -0.0232; outcome = active
